Measurements reported in PubChem BioAssay AID1259308 (NCATS, 2017).
This is a random part of about 59,000 deposited reagents. Of all reagents, about 1,510 (2.6%) got an active call. 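Calls use total luciferase alone and ignore viability, so some active siRNAs may act by altering cell number.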 A number with no mark means an inactive call. Reagents against one gene are numbered here. Reagent sequences are not shown.

Screen: 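Knock-downs that increase output of a recombinant reporter protein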 (primary screen)
Cells: human HEK293 embryonic kidney cells stably expressing firefly luciferase (HEK-CMV-Luc2-Hygro)
Knock-down reagent: single siRNA against human genes, 0.8 pmol siRNA per well
Time to read-out: 72 h
Measured: 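Luciferase light (ONE-Glo) measured on one replicate plate set and viability (CellTiter-Glo) on the other, scaled to a negative control siRNA, with robust z-scores and luciferase per cell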
Scale: total luciferase, z-score and total luciferase, % of control: higher = more reporter protein produced; luciferase per cell, z-score: higher = more reporter output per viable cell; viable cells, % of control: higher = more viable cells
Active means: 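An siRNA counts as active if its total luciferase robust z-score exceeds 3; genes with two or more such siRNAs out of three were retested with fresh siRNAs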
Meaning of the calls: active = raised luciferase; inactive = no rise

gene | siRNA no. | total luciferase, z-score | total luciferase, % of control | luciferase per cell, z-score | viable cells, % of control
TMEM171 | 1 | -1.1 | 60.1 | -0.534 | 77.3
TMEM171 | 2 | 0.136 | 84.6 | -0.454 | 107
TMEM171 | 3 | 0.392 | 89.7 | 0.283 | 93
XRCC2 | 1 | -0.338 | 75.2 | -0.373 | 92.6
XRCC2 | 2 | 0.473 | 91.3 | -0.182 | 107
XRCC2 | 3 | 0.965 | 101 | 0.353 | 103
TOMM22 | 1 | -0.0202 | 81.5 | -0.0798 | 93
TOMM22 | 2 | 0.292 | 87.7 | 0.371 | 88.9
TOMM22 | 3 | -0.0872 | 80.2 | -0.22 | 94.9
KLHL6 | 1 | 0.591 | 93.6 | 0.908 | 82.4
KLHL6 | 2 | 1.04 | 102 | 0.604 | 97.7
KLHL6 | 3 | 0.568 | 93.2 | 1.64 | 67.7
IGSF3 | 1 | 0.266 | 87.2 | 0.116 | 94.5
IGSF3 | 2 | -1.22 | 57.7 | 0.492 | 56.6
IGSF3 | 3 | -0.127 | 79.4 | 1.47 | 60.2
SLC9B2 | 1 | -1.51 | 51.9 | -1.89 | 95.6
SLC9B2 | 2 | 1.16 | 105 | 0.431 | 105
SLC9B2 | 3 | -0.713 | 67.7 | -1.15 | 102
MPDZ | 1 | -0.133 | 79.2 | -0.253 | 94.6
MPDZ | 2 | 0.22 | 86.3 | -0.407 | 107
MPDZ | 3 | -0.0806 | 80.3 | -0.452 | 101
LINC00921 | 1 | 1.64 | 115 | 2.17 | 72.4
LINC00921 | 2 | -1.59 | 50.3 | -1.17 | 76.6
LINC00921 | 3 | -0.426 | 73.4 | -0.897 | 104
RPL23P5 | 1 | 0.655 | 94.9 | 0.102 | 103
RPL23P5 | 2 | -2.47 | 32.7 | -1.38 | 52.6
RPL23P5 | 3 | -2.74 | 27.5 | -2.09 | 53.2
BRPF1 | 1 | 1.22 | 106 | 1.4 | 82.1
BRPF1 | 2 | -1.57 | 50.8 | -1.65 | 87.6
BRPF1 | 3 | 0.198 | 85.8 | 0.458 | 85
LDLRAP1 | 1 | 0.45 | 90.8 | 0.58 | 87.1
LDLRAP1 | 2 | 0.892 | 99.6 | 0.441 | 99.1
LDLRAP1 | 3 | -0.508 | 71.8 | 0.119 | 77.7
OR6N1 | 1 | -0.386 | 74.2 | 0.425 | 74.2
OR6N1 | 2 | 3.25 (active) | 147 | 1.67 | 105
OR6N1 | 3 | 1.68 | 115 | 1.22 | 93.3
MYO19 | 1 | -1.15 | 59.1 | -1.06 | 87.3
MYO19 | 2 | -0.868 | 64.6 | -0.33 | 78.8
MYO19 | 3 | 2.69 | 135 | 1.9 | 91.7
